Experimental data as given in patent US7759375B2, “Epothilones C, D, E, and F, preparation and compositions” (priority 1996, dated 2010).

Sequences of proteins named here, by UniProt entry; tags and fusion partners are left off.
UniProt P02554, whole entry: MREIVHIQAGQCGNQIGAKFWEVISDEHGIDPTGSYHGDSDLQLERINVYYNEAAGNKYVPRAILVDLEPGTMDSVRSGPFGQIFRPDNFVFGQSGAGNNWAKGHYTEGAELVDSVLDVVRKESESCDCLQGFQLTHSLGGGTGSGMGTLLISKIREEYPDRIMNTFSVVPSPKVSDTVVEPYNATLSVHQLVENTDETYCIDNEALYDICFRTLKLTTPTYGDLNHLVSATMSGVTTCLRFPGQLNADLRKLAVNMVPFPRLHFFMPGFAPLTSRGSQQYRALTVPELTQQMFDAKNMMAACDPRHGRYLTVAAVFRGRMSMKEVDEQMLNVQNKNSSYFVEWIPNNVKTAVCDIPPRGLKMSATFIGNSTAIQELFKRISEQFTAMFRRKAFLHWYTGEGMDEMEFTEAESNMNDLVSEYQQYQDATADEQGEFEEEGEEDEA

Target: T1, purified tubulin from pigs' brain (Sus scrofa, UniProt P02554)
T1 construct: purified tubulin from pigs' brain; from tissue; host or cells: pig brain
Format: biochemical, pig
Details: 0.9 mg of tubulin/ml, 1 μM sample concentration
Experimental: The epothilones according to the invention were tested with cell cultures (Table 2) and for promotion of polymerization (Table 3).
The polymerization test is an in vitro test using purified tubulin from pigs' brain. Evaluation is carried out photometrically.

C/C(=C\c1csc(CO)n1)[C@@H]1C[C@@H]2O[C@@H]2CCC[C@H](C)[C@H](O)[C@@H](C)C(=O)C(C)(C)[C@@H](O)CC(=O)O1 [Epothilone E]
Time up to the half-maximal polymerization, Agent [%] (relative activity in % of the control) (control = 100, lowest values indicate the best activity): 31%
Time up to the half-maximal polymerization of the control, Agent [s] (average of experiments w-z, control 190 s): 59 s
Time up to the half-maximal polymerization of the control, measurement w (independent experiment w): 80 s
Time up to the half-maximal polymerization of the control, measurement x (independent experiment x): 60 s
Time up to the half-maximal polymerization of the control, measurement y (independent experiment y): 50 s
Time up to the half-maximal polymerization of the control, measurement z (independent experiment z): 45 s
